The list shows a part of the results.

Protein sequences, listed by entry. Tags and fused reporters are not part of them.
UniProt Q0JBA9, entry or part of it: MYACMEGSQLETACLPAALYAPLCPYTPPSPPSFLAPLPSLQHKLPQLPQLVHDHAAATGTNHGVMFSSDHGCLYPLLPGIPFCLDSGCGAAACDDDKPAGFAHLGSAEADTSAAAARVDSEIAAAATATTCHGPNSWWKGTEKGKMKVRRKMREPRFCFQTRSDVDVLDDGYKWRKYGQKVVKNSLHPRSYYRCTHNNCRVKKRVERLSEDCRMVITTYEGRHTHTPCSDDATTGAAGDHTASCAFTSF

The test addresses OsWRKY34 (Oryza sativa, UniProt Q0JBA9 1-250). Briefly: protein-binding microarray (RPBM); PBS, 2% BSA, 51.3 ng/ul salmon testes DNA, 50 uM zinc acetate, 200 nM TF, 25 C, 1 h; high values mean tight binding. As to conditions: protein: recombinant; tags: N-terminal polyhistidine and DsRed monomer fusion (pET32a); label: CyDye5-dUTP incorporated in the synthesized complementary strand; 3' TTTTT single-stranded linker to array surface; dsDNA, one strand shown. Summed up: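 Ni–NTA purification followed expression in E. coli BL21-CodonPlus of transcription factors fused N-terminally to a polyhistidine tag and DsRed. At 200 nM in PBS with 2% BSA, salmon testes DNA and 50 µM zinc acetate, the protein was incubated for 1 h at 25 °C with a custom Agilent array that had been primer-extended with Cy5-dUTP and blocked with 2% BSA. After washing, the array was read on an Axon 4000B scanner. The binding signal is per-feature fluorescence intensity in arbitrary units.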
Take “GTTAATGCTAGTATACATCTGTAATGTCATGATTTATTTACGGAGTCACCTAGTGCAG”: the binding signal was 8610 fluorescence intensity (a.u.).

On to “ACTGGTCGAACCTTGGCGGGGAGGGGCCGGCCGGCCTCATCGGAGTCACCTAGTGCAG”, for which the binding signal was 8640 fluorescence intensity (a.u.).

Regarding “CACCACATCATCACCACCAAGCCATCGTCGCTGCGCATATCGGAGTCACCTAGTGCAG”, the binding signal is 10100 fluorescence intensity (a.u.).

For the sequence “GAATTCTATGCCCCTGGTTGCATCCTTGCACCGTCTGCAGCGGAGTCACCTAGTGCAG”, the binding signal is 9150 fluorescence intensity (a.u.).

“AGCATTCTAGGTCCGGCAATTTTTTTTCCCTCTCGGTTCCCGGAGTCACCTAGTGCAG”: the binding signal is 8860 fluorescence intensity (a.u.).

For the sequence “ATCATCTCATGCCTCTACTGCTGTGGGAGGGACAGTGAACCGGAGTCACCTAGTGCAG”, the binding signal is 9690 fluorescence intensity (a.u.).

As for “TCCATGATTCCCTTCTCGAATCTTCTCACTTTCTTCTGAACGGAGTCACCTAGTGCAG”, the binding signal was 8830 fluorescence intensity (a.u.).

Regarding “AAGAGGGGATCGATCGCTTTCTTGCTTTCATTTTTTTCCTCGGAGTCACCTAGTGCAG”, the binding signal was 8800 fluorescence intensity (a.u.).

In the case of “CCGCCGCCGTCATACTCATATCATATCTTCTTCTTCTTCTCGGAGTCACCTAGTGCAG”, the binding signal was 11900 fluorescence intensity (a.u.).

With “ATGATGATGTGGCATGGTTGCATGTTGAGCTTTAGACTTACGGAGTCACCTAGTGCAG”, the binding signal is 9990 fluorescence intensity (a.u.).

With “CGAGAGTGGACTAGATATGGCTTGCACCGGTTGGATTATACGGAGTCACCTAGTGCAG”, the binding signal is 8880 fluorescence intensity (a.u.).

For “TCATGAGTCATCAGTTCGTCGCTTGACTTGTGAGTACTCACGGAGTCACCTAGTGCAG”, the binding signal was 10700 fluorescence intensity (a.u.).

Consider “CTTTTTATGAAAATCTCCGACCGTTTTCATTCCATATACACGGAGTCACCTAGTGCAG”, for which the binding signal is 8790 fluorescence intensity (a.u.).

For the sequence “CTCGCGCGTGCCCGCCTCTGCTGTTCTTTCTCTCGCCCTCCGGAGTCACCTAGTGCAG”, the binding signal is 11400 fluorescence intensity (a.u.).

On to “TCCAATCATTTTCATTCACATTATCACATTATTTTTCATTCGGAGTCACCTAGTGCAG”, for which the binding signal is 8070 fluorescence intensity (a.u.).

As for “CGTCACTTGTAGTTTTGCAAGAAAGGCCATATGTTTTATTCGGAGTCACCTAGTGCAG”, the binding signal is 8150 fluorescence intensity (a.u.).

With “CTTCATTTTTCATTTGTTTTTCATTCCTGTAAGATAAAAGCGGAGTCACCTAGTGCAG”, the binding signal is 8200 fluorescence intensity (a.u.).

With “TTACTAATTTTAATCTTTGCCTAATTTGCTACCCTGACTACGGAGTCACCTAGTGCAG”, the binding signal was 8190 fluorescence intensity (a.u.).

Turning to “GAGGGAGGGGAGGGATATTTTTATGTAATTGTCACATCATCGGAGTCACCTAGTGCAG”, the binding signal is 13300 fluorescence intensity (a.u.).

“AGGTCAAACCCTGAGTTTCCGTGTTCAACTTTGACGGTCCCGGAGTCACCTAGTGCAG”: the binding signal was 9440 fluorescence intensity (a.u.).

As for “GCTGTGGATGGACTCAATGTTTTTGTTCATTGTTTCTCGGCGGAGTCACCTAGTGCAG”, the binding signal was 8110 fluorescence intensity (a.u.).

With “TCCTCGGCCAATTCCCGACTTTTGCTTTTATTTTCTTCATCGGAGTCACCTAGTGCAG”, the binding signal is 13000 fluorescence intensity (a.u.).

With “ACCGAAAGTGAGACGAGCTGCCCAGTTTTCCACACTCCATCGGAGTCACCTAGTGCAG”, the binding signal is 8730 fluorescence intensity (a.u.).

For “AACCTTTCACCCATCACATCAAATGTTTGAACACATGCATCGGAGTCACCTAGTGCAG”, the binding signal is 12100 fluorescence intensity (a.u.).

For “TCATGTTGAATCTTCGCGTCTAGAAGCATCCGGCTCCTAACGGAGTCACCTAGTGCAG”, the binding signal was 8150 fluorescence intensity (a.u.).

Take “CCTGCACGCGTCGTCGCCCACATTTTCCCACTTTCCACGGCGGAGTCACCTAGTGCAG”: the binding signal is 8100 fluorescence intensity (a.u.).

In the case of “AGTAAGTTTTCGCGTCCAACTTTGATCGTCCGTTTTATTTCGGAGTCACCTAGTGCAG”, the binding signal is 10500 fluorescence intensity (a.u.).

Regarding “GCGCTCGCCTTCCCCTGTTTGTCCATAGTTCCATACACCTCGGAGTCACCTAGTGCAG”, the binding signal is 8400 fluorescence intensity (a.u.).

“GCCATGAAACCTCCTTTGCTCACTGCTTTGGAACCATACTCGGAGTCACCTAGTGCAG”: the binding signal is 9020 fluorescence intensity (a.u.).

In the case of “CAGTTCACATGCTCTTCTCCCACTCTTCCGCCGCGCTATACGGAGTCACCTAGTGCAG”, the binding signal was 8060 fluorescence intensity (a.u.).

Turning to “CTGTATGTGTATTATTCCTATGTGTTTCCTATAATGTATTCGGAGTCACCTAGTGCAG”, the binding signal was 8390 fluorescence intensity (a.u.).

Take “GATCAGCTCTGTTCCCTCACTTCCCTGCTTATATACACGCCGGAGTCACCTAGTGCAG”: the binding signal is 8070 fluorescence intensity (a.u.).

Regarding “CTCTTCTCTTCTCTTCTCTTCTCTCTTCTCTCTCCTCTCCCGGAGTCACCTAGTGCAG”, the binding signal was 8700 fluorescence intensity (a.u.).

Turning to “TCGTCCCTGTCCGTCGCTCGCCTGCTCTCATCCTCTCCCTCGGAGTCACCTAGTGCAG”, the binding signal was 9940 fluorescence intensity (a.u.).

As for “AGACTGAGCACACACCCACACCTGCCACGTGTCCCTGGTTCGGAGTCACCTAGTGCAG”, the binding signal was 8350 fluorescence intensity (a.u.).

As for “TCGCCCCGATTCCAATTCCAATTCCACCACCGATCCATCGCGGAGTCACCTAGTGCAG”, the binding signal is 8530 fluorescence intensity (a.u.).

With “ACAGTATAATCGACCGATCCATCCATCGATCTCGACTTCTCGGAGTCACCTAGTGCAG”, the binding signal is 8440 fluorescence intensity (a.u.).

Regarding “TTGTGTTGGTTGGTGGACGCGTCCGCTTTTCTCTTCCTCGCGGAGTCACCTAGTGCAG”, the binding signal is 9180 fluorescence intensity (a.u.).

In the case of “AATTAGTTAATATTCTGTATGAAGCAGCCCTTAACTTCTTCGGAGTCACCTAGTGCAG”, the binding signal is 8200 fluorescence intensity (a.u.).

As to “GCTTCAATGCATAAACCGAACCGTGTCTCTTCCATTCTCACGGAGTCACCTAGTGCAG”, the binding signal was 10900 fluorescence intensity (a.u.).

Regarding “TTAATACTAATGTTTTAGCGTGTGGTTTTTTGGTGTACTCCGGAGTCACCTAGTGCAG”, the binding signal is 10700 fluorescence intensity (a.u.).

For the sequence “CTTTTTGTTTAATGTTGCGAATTACCTTGTCGATTTGATTCGGAGTCACCTAGTGCAG”, the binding signal was 8490 fluorescence intensity (a.u.).

Values taken from publication PMC7819943, “Rice protein-binding microarrays: a tool to detect cis-acting elements near promoter regions in rice”.
